Measurements reported in article PMC7762755.
These are yes or no findings as the source states them, for the method shown. Binding seen in cells or lysates may run through a third protein. Some binding calls cover weakened binding; strength is not graded here.

Chains of the proteins cited; added tags and fusions are not shown. Lines headed by an entry give the natural chain unless they say otherwise; changes in a name come on top. A line that says so, or that is headed by a name, gives the form on record, which may keep a tag or linker.
UniProt P42224: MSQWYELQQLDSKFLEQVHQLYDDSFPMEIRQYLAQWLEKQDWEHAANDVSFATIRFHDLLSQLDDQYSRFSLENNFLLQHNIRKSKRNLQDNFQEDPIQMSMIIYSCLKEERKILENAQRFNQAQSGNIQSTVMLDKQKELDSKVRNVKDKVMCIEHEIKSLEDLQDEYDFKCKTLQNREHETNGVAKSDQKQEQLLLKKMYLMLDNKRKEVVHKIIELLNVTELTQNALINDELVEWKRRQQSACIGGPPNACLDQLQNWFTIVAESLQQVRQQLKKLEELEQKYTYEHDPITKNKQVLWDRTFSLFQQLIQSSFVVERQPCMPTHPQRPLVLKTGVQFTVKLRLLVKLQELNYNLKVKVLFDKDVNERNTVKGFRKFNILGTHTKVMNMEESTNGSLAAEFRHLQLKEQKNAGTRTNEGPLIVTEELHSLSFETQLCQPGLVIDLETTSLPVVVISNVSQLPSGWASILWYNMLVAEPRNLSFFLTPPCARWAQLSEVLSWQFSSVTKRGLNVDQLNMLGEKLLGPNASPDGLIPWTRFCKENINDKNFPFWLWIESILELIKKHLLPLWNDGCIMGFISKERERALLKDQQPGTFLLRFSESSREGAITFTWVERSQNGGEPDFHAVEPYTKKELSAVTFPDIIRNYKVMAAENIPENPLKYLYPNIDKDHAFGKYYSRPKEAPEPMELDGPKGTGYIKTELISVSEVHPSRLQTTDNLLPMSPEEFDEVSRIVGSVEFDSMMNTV
human P301L mutant tau (P301L-hTau), expressed from plasmid in HEK293 cells (P10636-8, form named): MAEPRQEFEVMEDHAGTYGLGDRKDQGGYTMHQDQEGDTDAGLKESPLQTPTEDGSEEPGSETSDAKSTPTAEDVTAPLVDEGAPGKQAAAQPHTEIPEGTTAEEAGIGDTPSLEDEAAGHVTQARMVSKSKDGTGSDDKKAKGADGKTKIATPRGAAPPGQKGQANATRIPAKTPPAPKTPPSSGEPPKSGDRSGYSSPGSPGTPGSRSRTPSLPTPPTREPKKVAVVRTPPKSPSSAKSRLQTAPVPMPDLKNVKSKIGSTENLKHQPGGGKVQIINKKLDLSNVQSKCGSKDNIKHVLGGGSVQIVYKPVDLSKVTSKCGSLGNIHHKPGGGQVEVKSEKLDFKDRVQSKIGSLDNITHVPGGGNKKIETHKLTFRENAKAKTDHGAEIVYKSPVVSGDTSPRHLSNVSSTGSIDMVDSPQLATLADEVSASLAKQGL

Target: Signal Transduction and Activator of Transcription-1 (STAT1) (human (endogenous in HEK293)) (UniProt P42224)
Experiment: co-IP; HEK293WT cells transfected with P301L-hTau

**Q.** “human P301L mutant tau (P301L-hTau), expressed from plasmid in HEK293 cells (from UniProt P10636-8 1-441)” was tested. Which binding did it give?
**A.** Its binding is “binds”.
